The other results are listed elsewhere or left out.

By UniProt entry, the sequences of proteins in these tests, tags left out. Where a name states a change or a piece, a line headed by the entry shows the natural chain unless it says otherwise.
UniProt Q9BZV1: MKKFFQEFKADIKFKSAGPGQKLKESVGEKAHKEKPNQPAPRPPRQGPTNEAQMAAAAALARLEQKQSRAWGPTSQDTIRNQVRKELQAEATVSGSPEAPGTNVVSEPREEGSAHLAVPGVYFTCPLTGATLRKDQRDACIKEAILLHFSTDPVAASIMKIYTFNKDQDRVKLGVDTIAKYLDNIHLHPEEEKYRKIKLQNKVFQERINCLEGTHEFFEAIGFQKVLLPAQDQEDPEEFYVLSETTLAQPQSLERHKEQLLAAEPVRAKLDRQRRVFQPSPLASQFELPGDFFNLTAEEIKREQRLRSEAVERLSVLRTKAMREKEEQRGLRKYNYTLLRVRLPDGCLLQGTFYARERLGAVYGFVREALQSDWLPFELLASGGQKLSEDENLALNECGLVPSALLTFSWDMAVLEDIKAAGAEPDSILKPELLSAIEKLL
UniProt O75691: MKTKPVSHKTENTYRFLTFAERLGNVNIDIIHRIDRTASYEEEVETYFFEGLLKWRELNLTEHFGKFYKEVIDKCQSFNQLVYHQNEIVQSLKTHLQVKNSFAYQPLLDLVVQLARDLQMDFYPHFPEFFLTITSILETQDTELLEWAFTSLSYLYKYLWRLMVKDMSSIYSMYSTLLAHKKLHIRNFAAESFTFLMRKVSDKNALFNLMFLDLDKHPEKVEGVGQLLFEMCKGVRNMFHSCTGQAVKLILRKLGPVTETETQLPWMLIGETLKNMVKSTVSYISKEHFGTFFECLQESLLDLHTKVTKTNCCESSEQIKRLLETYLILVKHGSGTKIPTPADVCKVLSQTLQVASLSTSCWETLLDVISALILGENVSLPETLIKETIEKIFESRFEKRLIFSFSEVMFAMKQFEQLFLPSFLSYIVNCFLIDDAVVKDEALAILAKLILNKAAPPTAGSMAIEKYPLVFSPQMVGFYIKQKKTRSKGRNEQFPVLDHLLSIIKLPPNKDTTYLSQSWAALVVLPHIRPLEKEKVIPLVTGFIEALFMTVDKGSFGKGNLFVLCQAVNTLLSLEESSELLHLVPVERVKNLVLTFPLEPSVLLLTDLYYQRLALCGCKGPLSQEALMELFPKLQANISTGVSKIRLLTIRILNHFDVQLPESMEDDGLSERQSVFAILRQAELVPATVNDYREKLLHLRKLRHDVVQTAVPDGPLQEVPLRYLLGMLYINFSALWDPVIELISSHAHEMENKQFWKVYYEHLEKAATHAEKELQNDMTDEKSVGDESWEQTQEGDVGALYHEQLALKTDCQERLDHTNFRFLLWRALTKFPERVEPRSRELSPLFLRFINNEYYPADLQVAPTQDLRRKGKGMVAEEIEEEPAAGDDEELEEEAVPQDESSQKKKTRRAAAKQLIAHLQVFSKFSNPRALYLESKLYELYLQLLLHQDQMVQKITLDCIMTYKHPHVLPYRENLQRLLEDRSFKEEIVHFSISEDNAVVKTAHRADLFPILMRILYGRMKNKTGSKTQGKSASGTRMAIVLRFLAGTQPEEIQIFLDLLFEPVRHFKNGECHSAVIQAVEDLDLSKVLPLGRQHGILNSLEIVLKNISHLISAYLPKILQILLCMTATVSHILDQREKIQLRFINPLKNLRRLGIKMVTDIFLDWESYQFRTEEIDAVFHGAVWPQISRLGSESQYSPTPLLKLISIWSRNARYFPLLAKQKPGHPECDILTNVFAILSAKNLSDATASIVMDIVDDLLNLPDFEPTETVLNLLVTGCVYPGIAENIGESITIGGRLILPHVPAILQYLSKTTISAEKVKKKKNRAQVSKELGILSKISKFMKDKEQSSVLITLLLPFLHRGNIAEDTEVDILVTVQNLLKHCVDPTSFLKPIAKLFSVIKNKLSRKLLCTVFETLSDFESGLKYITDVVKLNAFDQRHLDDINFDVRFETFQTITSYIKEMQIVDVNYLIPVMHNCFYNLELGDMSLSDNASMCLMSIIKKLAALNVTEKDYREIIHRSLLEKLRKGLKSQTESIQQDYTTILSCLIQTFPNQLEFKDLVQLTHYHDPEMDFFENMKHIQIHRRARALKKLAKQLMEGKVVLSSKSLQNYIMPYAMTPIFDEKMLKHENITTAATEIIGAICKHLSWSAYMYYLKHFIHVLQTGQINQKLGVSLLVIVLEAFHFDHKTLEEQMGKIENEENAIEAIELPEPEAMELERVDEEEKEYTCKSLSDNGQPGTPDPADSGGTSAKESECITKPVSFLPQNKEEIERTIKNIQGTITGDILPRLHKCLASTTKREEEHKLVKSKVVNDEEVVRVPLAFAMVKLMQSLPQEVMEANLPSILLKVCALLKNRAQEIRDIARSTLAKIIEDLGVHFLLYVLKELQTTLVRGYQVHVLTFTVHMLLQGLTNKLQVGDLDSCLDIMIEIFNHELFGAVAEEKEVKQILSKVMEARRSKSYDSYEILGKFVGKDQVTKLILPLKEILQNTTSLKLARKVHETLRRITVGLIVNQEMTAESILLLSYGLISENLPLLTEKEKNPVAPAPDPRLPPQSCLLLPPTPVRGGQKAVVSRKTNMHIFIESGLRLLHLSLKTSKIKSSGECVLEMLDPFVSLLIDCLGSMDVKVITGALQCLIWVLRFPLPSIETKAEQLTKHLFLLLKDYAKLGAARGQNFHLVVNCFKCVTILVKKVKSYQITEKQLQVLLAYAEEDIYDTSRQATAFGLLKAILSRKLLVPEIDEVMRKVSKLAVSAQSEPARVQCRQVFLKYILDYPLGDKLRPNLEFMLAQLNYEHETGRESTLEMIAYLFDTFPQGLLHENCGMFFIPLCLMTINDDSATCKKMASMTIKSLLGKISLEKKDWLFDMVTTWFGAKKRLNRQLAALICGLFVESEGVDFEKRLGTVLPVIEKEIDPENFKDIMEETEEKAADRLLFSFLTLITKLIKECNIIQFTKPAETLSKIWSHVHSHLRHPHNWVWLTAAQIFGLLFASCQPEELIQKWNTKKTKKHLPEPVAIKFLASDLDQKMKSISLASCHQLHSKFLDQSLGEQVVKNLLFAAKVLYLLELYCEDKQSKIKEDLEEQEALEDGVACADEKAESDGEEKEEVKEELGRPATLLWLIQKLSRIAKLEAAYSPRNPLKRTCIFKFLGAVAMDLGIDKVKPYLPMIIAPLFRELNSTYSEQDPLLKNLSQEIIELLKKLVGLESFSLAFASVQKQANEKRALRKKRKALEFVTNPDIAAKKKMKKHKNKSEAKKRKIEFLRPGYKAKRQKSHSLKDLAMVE
UniProt P68371, whole entry: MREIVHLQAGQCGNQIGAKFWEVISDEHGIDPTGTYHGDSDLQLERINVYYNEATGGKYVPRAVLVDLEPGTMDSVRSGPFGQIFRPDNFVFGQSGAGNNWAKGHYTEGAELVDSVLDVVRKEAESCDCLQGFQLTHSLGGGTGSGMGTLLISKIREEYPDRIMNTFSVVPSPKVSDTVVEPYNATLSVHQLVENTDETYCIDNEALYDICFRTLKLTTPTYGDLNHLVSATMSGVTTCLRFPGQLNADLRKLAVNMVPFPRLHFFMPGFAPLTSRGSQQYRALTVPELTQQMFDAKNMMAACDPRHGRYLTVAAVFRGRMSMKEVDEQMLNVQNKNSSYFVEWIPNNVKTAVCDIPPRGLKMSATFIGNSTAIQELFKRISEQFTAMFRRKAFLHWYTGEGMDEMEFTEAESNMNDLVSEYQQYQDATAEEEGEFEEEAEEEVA
UniProt Q9Y6W5, whole entry: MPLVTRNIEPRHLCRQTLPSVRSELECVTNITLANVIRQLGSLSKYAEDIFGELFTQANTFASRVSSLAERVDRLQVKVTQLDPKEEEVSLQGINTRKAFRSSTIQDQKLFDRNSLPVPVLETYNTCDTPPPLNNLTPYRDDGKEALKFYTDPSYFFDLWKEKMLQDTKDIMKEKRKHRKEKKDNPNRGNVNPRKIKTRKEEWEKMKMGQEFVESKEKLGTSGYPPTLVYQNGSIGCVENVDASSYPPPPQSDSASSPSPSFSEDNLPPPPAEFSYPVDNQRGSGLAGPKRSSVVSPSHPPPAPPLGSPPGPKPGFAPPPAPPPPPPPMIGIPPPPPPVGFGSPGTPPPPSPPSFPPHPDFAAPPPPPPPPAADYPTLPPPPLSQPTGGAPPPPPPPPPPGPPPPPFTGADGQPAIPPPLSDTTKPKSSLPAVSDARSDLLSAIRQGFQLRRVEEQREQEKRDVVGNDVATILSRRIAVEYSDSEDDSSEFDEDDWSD
UniProt Q8TCY9: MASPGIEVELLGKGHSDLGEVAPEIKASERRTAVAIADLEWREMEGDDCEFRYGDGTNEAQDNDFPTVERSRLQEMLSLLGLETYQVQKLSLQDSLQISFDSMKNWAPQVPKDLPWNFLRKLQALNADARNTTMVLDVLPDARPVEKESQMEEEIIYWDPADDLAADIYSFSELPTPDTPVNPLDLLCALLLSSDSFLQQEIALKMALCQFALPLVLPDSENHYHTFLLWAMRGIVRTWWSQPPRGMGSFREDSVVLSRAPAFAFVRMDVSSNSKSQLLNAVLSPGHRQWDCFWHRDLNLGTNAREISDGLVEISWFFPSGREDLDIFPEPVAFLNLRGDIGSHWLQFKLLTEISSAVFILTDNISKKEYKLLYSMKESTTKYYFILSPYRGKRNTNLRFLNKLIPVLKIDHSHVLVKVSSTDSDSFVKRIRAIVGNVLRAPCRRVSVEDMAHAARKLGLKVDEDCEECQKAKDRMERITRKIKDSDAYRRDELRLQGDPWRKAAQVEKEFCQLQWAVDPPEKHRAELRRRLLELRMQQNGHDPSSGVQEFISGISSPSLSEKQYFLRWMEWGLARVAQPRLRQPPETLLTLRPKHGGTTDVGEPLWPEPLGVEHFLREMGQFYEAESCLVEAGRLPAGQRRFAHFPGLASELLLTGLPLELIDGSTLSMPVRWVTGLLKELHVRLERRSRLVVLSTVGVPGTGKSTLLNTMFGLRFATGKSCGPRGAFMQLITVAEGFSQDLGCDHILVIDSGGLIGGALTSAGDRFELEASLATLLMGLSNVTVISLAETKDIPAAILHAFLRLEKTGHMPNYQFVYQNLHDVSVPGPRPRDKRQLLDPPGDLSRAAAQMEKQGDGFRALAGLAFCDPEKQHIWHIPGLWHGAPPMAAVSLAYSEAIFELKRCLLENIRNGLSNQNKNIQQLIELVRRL
UniProt Q96T88: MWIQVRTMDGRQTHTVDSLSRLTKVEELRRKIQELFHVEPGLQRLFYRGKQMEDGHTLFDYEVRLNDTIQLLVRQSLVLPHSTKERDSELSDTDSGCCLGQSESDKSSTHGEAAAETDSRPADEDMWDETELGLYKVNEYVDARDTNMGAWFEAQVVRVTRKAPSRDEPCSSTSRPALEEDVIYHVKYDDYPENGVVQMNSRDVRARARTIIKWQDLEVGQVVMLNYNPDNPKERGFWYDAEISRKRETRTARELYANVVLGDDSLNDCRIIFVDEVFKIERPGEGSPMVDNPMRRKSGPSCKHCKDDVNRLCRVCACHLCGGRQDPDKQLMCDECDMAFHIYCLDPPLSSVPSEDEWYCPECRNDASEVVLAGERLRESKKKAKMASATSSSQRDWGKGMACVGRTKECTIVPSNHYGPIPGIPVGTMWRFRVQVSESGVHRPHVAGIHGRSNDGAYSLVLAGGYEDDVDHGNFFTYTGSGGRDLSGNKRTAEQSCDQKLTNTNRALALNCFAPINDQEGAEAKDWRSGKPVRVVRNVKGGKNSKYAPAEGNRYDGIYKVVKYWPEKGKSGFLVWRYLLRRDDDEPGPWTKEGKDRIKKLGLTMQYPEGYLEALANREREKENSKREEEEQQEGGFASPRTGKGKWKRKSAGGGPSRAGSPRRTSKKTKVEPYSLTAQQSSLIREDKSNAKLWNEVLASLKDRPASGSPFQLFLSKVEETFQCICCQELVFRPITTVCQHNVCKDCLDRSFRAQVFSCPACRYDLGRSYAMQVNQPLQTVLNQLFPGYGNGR
UniProt Q9HA47: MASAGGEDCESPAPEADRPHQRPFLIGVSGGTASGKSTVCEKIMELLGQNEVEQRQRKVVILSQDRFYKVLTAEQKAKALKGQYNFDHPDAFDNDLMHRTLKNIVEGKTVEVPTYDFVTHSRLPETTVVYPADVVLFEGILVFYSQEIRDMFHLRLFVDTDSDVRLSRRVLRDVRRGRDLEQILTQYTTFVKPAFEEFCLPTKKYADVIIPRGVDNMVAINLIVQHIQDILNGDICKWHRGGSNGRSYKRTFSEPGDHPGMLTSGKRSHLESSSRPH
UniProt Q7Z7E8: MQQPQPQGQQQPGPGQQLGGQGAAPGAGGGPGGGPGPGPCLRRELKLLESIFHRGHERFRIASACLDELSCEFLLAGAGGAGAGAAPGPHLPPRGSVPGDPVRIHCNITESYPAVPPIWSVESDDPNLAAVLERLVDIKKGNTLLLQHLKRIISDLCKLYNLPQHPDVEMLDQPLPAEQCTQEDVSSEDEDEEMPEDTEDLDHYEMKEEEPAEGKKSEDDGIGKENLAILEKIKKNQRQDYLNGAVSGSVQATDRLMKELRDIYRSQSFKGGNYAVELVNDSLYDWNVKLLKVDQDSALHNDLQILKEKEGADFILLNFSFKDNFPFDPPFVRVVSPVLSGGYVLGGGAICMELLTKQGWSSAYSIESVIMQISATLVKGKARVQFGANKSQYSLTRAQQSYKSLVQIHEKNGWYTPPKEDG

Compound in the test: COc1ccc(Cn2ccc3cc(C)c(C(=O)NO)cc32)cc1
As to the kind of experiment: dose-dependent thermal stabilisation call (2D-TPP, DLPTP, 10% FDR) (binary (1 = stabilised)); higher = stabilised by the compound. The settings on record: system: HL-60 intact cells; concentration range 0.04-10 µM. Here is the method: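 2D thermal proteome profiling in intact HL-60 cells treated with BRD-3811 (0, 0.04, 0.29, 2, 10 uM) for 90 min at 37 C, then heated 3 min at one of 12 temperatures (42-63.9 C). Soluble protein was quantified by TMT10 MS. The value is the DLPTP call of the paper: dose-dependent thermal stabilisation over all temperatures at 10% FDR (F-test of a dose-response against a flat model); one experiment, one call per tested protein.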
VAMP5 (UniProt O95183): the “dose-dependent thermal stabilisation call” value is inactive: 0.
The figure for UBXN6 (UniProt Q9BZV1) is inactive: 0.
For the target UXS1 (UniProt Q8NBZ7), the “dose-dependent thermal stabilisation call” value was inactive: 0.
For the target UHRF1BP1L (UniProt A0JNW5), the “dose-dependent thermal stabilisation call” value was inactive: 0.
UFSP2 (UniProt Q9NUQ7): the “dose-dependent thermal stabilisation call” value is inactive: 0.
To UBA6 belongs inactive: 0; to TUFM (UniProt P49411), inactive: 0.
To VPS52 (UniProt Q8N1B4) belongs inactive: 0; to UTP20 (UniProt O75691), inactive: 0; to TUBB2C (UniProt P68371), inactive: 0.
The figure for TXNRD3 (UniProt Q86VQ6) is inactive: 0.
For the target WASF2 (UniProt Q9Y6W5), the “dose-dependent thermal stabilisation call” value is inactive: 0.
The figure for TXNDC17 (UniProt Q9BRA2) is inactive: 0; for URG4 (UniProt Q8TCY9) it is inactive: 0; for UHRF1 (UniProt Q96T88) it is inactive: 0.
As for URB1 (UniProt O60287), the “dose-dependent thermal stabilisation call” value is inactive: 0.
The figure for WAC (UniProt Q9BTA9) is inactive: 0; for UBE3A (UniProt Q05086) it is inactive: 0; for TXNDC11 (UniProt Q6PKC3) it is inactive: 0.
The figure for VAMP2 (UniProt P63027) is inactive: 0; for UROD (UniProt P06132) it is inactive: 0.
For the target VPS33A (UniProt Q96AX1), the “dose-dependent thermal stabilisation call” value was inactive: 0.
In the case of TXNDC1 (UniProt Q9H3N1), the “dose-dependent thermal stabilisation call” value is inactive: 0.
For the target TTC9C (UniProt Q8N5M4), the “dose-dependent thermal stabilisation call” value is inactive: 0.
Turning to TWISTNB (UniProt Q3B726), the “dose-dependent thermal stabilisation call” value was inactive: 0.
As to TYW1 (UniProt Q9NV66), the “dose-dependent thermal stabilisation call” value is inactive: 0.
With UQCC (UniProt Q9NVA1), the “dose-dependent thermal stabilisation call” value was inactive: 0.
To UBE2M (UniProt P61081) belongs inactive: 0; to UCK1 (UniProt Q9HA47), inactive: 0; to USP16 (UniProt Q9Y5T5), inactive: 0.
The figure for VCP (UniProt P55072) is inactive: 0; for UNC93B1 (UniProt Q9H1C4) it is inactive: 0; for WARS2 (UniProt Q9UGM6) it is inactive: 0.
To UNC13B (UniProt O14795) belongs inactive: 0.
Consider UBE2Q1 (UniProt Q7Z7E8), for which the “dose-dependent thermal stabilisation call” value is inactive: 0.
To USP8 (UniProt P40818) belongs inactive: 0.

For the origin of these results see the supplement of paper PMC7666118.
